According to publication PMC11651612:
No constants are given. Whether binding was seen depends on the method and setting. Binding seen in cells or lysates may run through a third protein. A yes stands for co-enrichment or nearness to the bait. Other partners may have been found.

T1: Cdc10-mCherry (C. neoformans) (UniProt J9VMT9)
T1 sequence: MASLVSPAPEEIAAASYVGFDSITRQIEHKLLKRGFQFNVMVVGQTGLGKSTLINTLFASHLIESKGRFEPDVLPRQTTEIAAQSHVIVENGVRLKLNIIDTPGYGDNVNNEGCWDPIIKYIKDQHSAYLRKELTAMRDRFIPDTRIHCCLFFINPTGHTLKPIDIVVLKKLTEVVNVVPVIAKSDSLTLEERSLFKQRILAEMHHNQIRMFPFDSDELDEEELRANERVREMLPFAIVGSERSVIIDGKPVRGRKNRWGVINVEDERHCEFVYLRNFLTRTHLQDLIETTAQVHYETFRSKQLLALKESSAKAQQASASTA

T2: Cdc3-mCherry (C. neoformans) (UniProt J9VUF2)
T2 sequence: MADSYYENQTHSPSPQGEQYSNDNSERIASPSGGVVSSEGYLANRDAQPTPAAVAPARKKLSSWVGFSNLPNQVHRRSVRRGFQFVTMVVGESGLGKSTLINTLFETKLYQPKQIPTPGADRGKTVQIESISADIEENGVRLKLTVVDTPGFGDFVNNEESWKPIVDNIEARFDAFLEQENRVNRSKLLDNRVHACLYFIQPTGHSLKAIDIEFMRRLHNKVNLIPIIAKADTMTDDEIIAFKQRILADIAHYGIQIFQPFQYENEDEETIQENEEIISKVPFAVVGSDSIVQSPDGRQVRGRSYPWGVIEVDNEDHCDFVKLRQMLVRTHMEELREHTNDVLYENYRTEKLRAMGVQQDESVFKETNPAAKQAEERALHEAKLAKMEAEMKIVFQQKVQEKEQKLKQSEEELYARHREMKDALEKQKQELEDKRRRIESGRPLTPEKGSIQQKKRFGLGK


How the values were obtained:
[1] = biological target: T1, Cdc10-mCherry (C. neoformans); assay: affinity purification with mass spectrometry; mCherry-tagged septin captured from C. neoformans lysate on RFP-Trap agarose, 4 h at 4°C, washed with TBS with 2 M urea pH 7.5; GeLC-MS/MS; untagged H99 as negative control; hits logFC >2 and adjusted p <0.001 (text-named hits <0.05); exponential cultures at ~25°C or shifted to 37°C for 2 h; N = 5
[2] = biological target: T2, Cdc3-mCherry (C. neoformans); assay: as above

| Binder | binding [1] | binding [2] |
| --- | --- | --- |
| Cyclin-dependent kinases regulatory subunit (protein, UniProt J9VRP5 1-104) MAPGKQPATLEELSERIIYSDRYSDDRFEYRHVILPKQMLKLIPKRYFASDDSGLLRILEEDEWRGIGITQSLGWEHFEVHAPEPHILLFRRPLPGSNANAKRQ | binds | binds |
| W2 domain-containing protein (protein, UniProt J9VK83 1-432) MSHTPTSTASGNAPTTDKKPSLTGVRIKQRKGQAKATAKFEPEAFRDALLLHLALLPHPITKDALVAKLVQAGSTLEFLKYSEQLFELLFVGGLLQPGGSYLDDKRSPVYILQPDDAPDAFQDGVKGMIEVLKRVMQRYKYLQKPLEENFLPGVLSYLPKWDVKSREKLAEAIALLTIELQISSRCLQSLAKEHVVKDNVALNFLTAFIKTYLSRQSIDQFGSTLRRSGLKSILAVFPLQIRDRKHLEAHFREENLQVVNDWYAKLALGEVKDETVQAVERMINDDETSDQIVEALKLQQSERPVSEADISEWIWLALMGTVDWTARSDQIDTFVISHITRYASILETFCQSAKAQVNLINAVQVYCYTDTRIIKSFVQILKVLYNADVVSDQAIIYWHQKGAKPNGKGHFLKVAEPLVKFLSEQESDSEEE | binds | binds |
| tRNA-dihydrouridine synthase 1 (protein, UniProt J9VE31 1-615) MSAAAQVVNSEEPQSVGEELRTKKQFPTFPAPGKPKHEKLGGYDFYRSIGSPKFVVAPMVDQSELAWRLLSRSPLPPALAGPSETVITPQGKTYIRHPGGAHVCYTPMIHAKVFVDAKGEGGRNGDGQFCLSLDEEGGEGVIGGVEGGDRPLIVQFCANDPDILLAAAKKVEHRCDAVDINFGCPQGIAKRGHYGSFLQDEWELIHKLISTLHENLSVPVTAKFRIFPDLDKTIAYARMMEAAGAQILTCHGRTREMKGQNTGLADWEYIREVKKAVKVPVFANGNILYREDVDRCMEVTGCDGVMSAEGNLSNPAIFMPPEHPHAHPPITMLAHRYLDIVEALDTPTAGSAIKAHLFRLLKPVLDTDEELRVQIATCRWSDGMDGFREIIRDIERRCAPVREALGADWRPPAVDPKTGYRSLPMFAAQPQIRAKPVSTEIGGHEDMVSRPVSPGKDGEDRMFDTPNITTAPASSVPGTVLFSRSHRHTSLGQTERCVHSDCTGVAATRCPTRACITHCRILRAVEAGYTREEAEAEGAKGGLVGMGCDAHEEKVRARKEREARKRKGREMAKEKAKERKKEEKAKAKEEREKSKEKVEMTEEEASFAAGLAVNL | binds | binds |
| Tyrosyl-DNA phosphodiesterase 1 (protein, UniProt J9VKG1 1-655) MGSDEQPSWTPLSRSNQQSVDHDDEDDEQLRIAIALSQTEARETKRARREETPDDEKQMLEEAIAASLAEAGSSTNPETIISQQPVGSPATPIVAPAEEAPSSLRVGSQTYDRAQMNRERLQRQAAREKIEAERSRRDGIATFEQTSSQLPQARKAASAQWPPPTGAHPFQRTAPFPRDAAGEYYLEGELRHTGNMWASEDPTGNIRSPTFSLTHVVGNHSQISLIITSAYCIDDSWINEAGILPDPVDVPIVMIRPYPKDLRHRLNGKVVSQLNGEVWCYPDMKDNWGTMHMKFFWIFYKTGRLRVCISTANLVPYDWSMMENSVFVQDFPRLDTPIQGLSADTPTHDLAVQFRTLFKHIGVDSALTLLSKNHPQGNQIPFSGQNDFADLRHWDWGKVRFRTVISISEKLSGASDVSRFGIGRLGHVLDTEGWLPDEEEKAVIEYQGSSLGQYSLNWLHNFYSFCTGKKISSLVTNSKPSSWPPIKIIFPSLGTVDNSVGGRDGGGTIFAGKGWNANTKDLFYDSNSKRGGILMHAKMMIAIFHPKTRTPSSQTPSSASLGKRKALELDEVENRIGGWVYVGSHNFSPAAWGTLDTKKSPVTLSIKNYELGIVFPLYGQQSNAAADKVAPYKRPPKKYSVGDEPWDQKKHGFGL | binds | binds |
| Protein CFT1 (protein, UniProt J9VWW6 1-1431) MHALHQTLLPSSSIHHSLFLPHFTPSTIYPLPKPPAVLDTPDVKVIGNLVVAGAEVLRVFEIREESVPIIEKAKLEEDVAEGEKDVQMEEVGDGFFDDGHAERAPLKYQTTRRLHLLTQHELNGTVTGLAATRTLESTIDGLDRLIVSFKDAKMALLEWSRGDIATVSLHTYERCSQMNTGDLQSYVPLLRTDPLWRLAVLTLPEDSLAVLPLIQEQSELDPLSEGFSRDAPYSPSFVLSLSDVSTTIKNIQDLLFLPGFHSPTIALLFSPMHTWSGRLQTVKDTFCLEIRTFDLSSGTSYPLLTSVSGLPSDSLYLVACPSELGGIVIVTSTGIVHVDQGGRVAAACVNAWWSRITSLKCSTASVSQKLTLEGSRCVFVTPHDMLLVLQNGAVHQVRFSMEGRAVGVIEVLDKGCVVPPPSDLTVAGDGAVFVGSAEGDSWLAKVNVVRQVVERAEKKKDEMEVDWDEDLYGDINDAALDEKAQEQFGPAAITLSPYDILTGVGKIMDIEFGIAASDQGLRTYPQLVAVSGGSRNSTFNVFRRGIPITKRRRFNELLNADGVWFLPIDRQTGQKFKDIPEAERATMLLSSEGNATRVFALSSKPTPQQIGRLDGKTLSAAPFFQRSCILHVSPLEVVLLDNNGKIIQTVCPRGDGPKIVNASISDPFVIIRRADDSVTFFVGDTVARTVGEAPIVSEGESPVCQAVEIFTDTTGVYRTFEPSKSQSSESASHHTDSESKPYITNGTNGTTARSTRQTQLTPEQIKRLQEQEPAITTEAPSMETAINSSHGTQWLALVTRSGELQIRSLPDLHIVLQSEGLGSSAPSFTDDLGENPGYVLGEKREEGEEEDEIIQMVFCPIGKGTVRQHLLALHHSGRLNAYEAQPRFTVDASSHSRRSLAVRFRKVHTQLLPISGGVGTTNGNARLPYTIVPFNNIEGLTGAFITGEKPHWIISSEAHPLRAFALKQAAMAFGKTTHLGGKGEYFIRIEDGSFICYLPPTLNTDFAIPCDRYQMERAYTNITFDPTSAHYVGAASIEVPFQAYDEEGEIQLGPDGPDLIPPTNQRSTLELFSQGSDPWRVIDGYEFDQNEEVMSMESVNLESPGAPGGYRDFIAVGTGFNFGEDRATRGNTYIFEILQTVGPQGGGGPGSVPGWKLVKRTKDPARHPVNAVNHINGYLLNTNGPKLYVKGLDYDAQLMGLAFLDIQLYATTVKVFKNFMLIGDLCKSFWFVSLQEDPYKFTTISKDLQHVSVVTADFLVHDGQVTFISSDRNGDMRMLDFDPTDPDSLNGERLMLKTEYHAGSAATVSKVIARRKTAEEEFAPQTQIIYATADGALTTVVSVKDARFKRLQLVSDQLVRNAQHVAGLNPRAFRTVRNDLLPRPLSKGILDGQLLNQFALQPIGRQKEMMRQIGTDAVTVASDLQALGGFW | binds | binds |
| Probable acetate kinase (protein, UniProt J9W3A6 1-430) MPDKAEYLLAINCGSSSIKGKLFAIPSFELLANLAVTNISSSDERVKIKTTWEEGKGKDSEEEADYGDKIRYASLVPILLDHLTNSTHVKKEEIKYVCHRVVHGGMHDKGIRVVKGHEEGLMEMDKLSEFAPLHNHRAVLAVKSCIDALPHHTSLLLFDTIFHRTIAPEVYTYALPPPDTELTMPLRKYGFHGLSYASIVQSLAEHLKKPSDQINVVVAHLGSGSSSCCIKNGKSIDTSMGLTPLEGLLGGTRSGTIDPTAIFHHTEDAASDANVGDFTVSKAEIILNKNSGFKALAGTTNFGHIIQNLDPSKCSEEDHEKAKLTYAVFLDRLLNFVAQYLFKLLSEVPIESIDGLVFSGGIGEKGAELRRDVLKKLAWLGAEVDEEANNSNSGGAVKCITKEGSKLKGWVVETDEEGWMARMAKEEFGF | binds | binds |
| Kynurenine 3-monooxygenase [BNA4] (protein, UniProt J9VMV3 1-507) MPQSRARKVLVVGAGPVGALTALSLHRRGWEVEVWESRDDPRGQDAAPSNLRSINLAISSRGLEALRSVDPSIAENFLEEAIPMKGRMIHHTDGKQESQLYDPIGGQSINSISRPILNQRLVQSLPETIKLRFNTKLKHIDFKNRVAYASHKQEATLLPGEESGKDKKESTEDEDDGTAFDLVIGCDGSWSKVRTAMMRAERIDFSQSFIPHAYIELHMPSNPDFPGGYAMDKNHLHIWPRHAFMLIGLPNKDGSFTLTLFIPFSSLELLNTRESAATFFREHFPSAVDIVGEKVLLDDFEKNPRGNLVTINCTPSAWSSHAILLGDASHSMVPFYGQGLNCGLEDVRVLSSILERHHISSTTTLALGETDPELELALKAYSDERQGDLKAICELALQNYTEMRSHVLSPLHHLRRQVDKMFTTLFRSAPQATLSLTEPFPTKRVRGWTSLYEMVTFRPDVGYSEALRKERWQKDVVGYTGWVGGVIGIGAAGVFAATMAKKWLERR | binds | binds |
| RNA-binding protein (protein, UniProt J9VQW4 1-607) MPFNDELDTPAFRAWLSRTIEPLCDADPTVLSDYIVALMKHDASMTEDEWKAFISRELVDFLESSSRPFVETLFQTLHSKDYDLTQTLPAPAVSHHIPTGPAAGVAPQPSAGPSTVQNGQQRDVTMQEMPVGVSGRRKCRDYHERGYCMRGANCQYEHSADMLIPTPEMMFQGFLPPFMPGMPGMPIQYPGMQPVRPMTMQGPGFRDGPNGRNRSFGNRPPPSNEGENFEGSSRPPSDHSKTTLLITDIPEANMSVVAIRNYFQQFGTITSVALEGRGNRALVSFASNLEAYKAWKSDEAVFGNRHVKVLWHKPRPGQGAAGQKALEQSKKLLENLQKMEAGEGPNQGVKPKLSGPETRLQATLAELEHREKQSKKEPLIAEQKVLLKRASTGTKEEKVQILKRLREITKELEIINNPPPKPESMDVDDAKSRLDRELAAHGMEMGGQDEEELARLNAQLASLKEKANTLGVNASARYSPYSRGRGGRGRGRGGPPRPMRLDNRSRTILVSGDRFGDEEARRVVQEWYESTGGGVEFVDGSLRITYPQREMAEKALALGTNELREKAGPIRTAWEPLKPVERYQPPDVEMTVHMGEEELRGEKDDDE | binds |  |
